At least one structure is not confirmed: it was looked up by name or label, or the drawing left a doubt.
Test: Leaching test: measurement of a leakage (leaching rate)
Assay type: biochemical
Details: hydrophobic material alone, 37° C., 90 min, mean of three ± SD
Protocol: The leakage (leaching rate) was determined according to the method described by K. Kono et al., Bioconjugate Chem., 2008 19 1040-1048 and evaluated using an EYPC liposome including Pyranine serving as a fluorescent substance and DPX serving as a quencher.
3000 nmol of EYPC dissolved in chloroform was measured and placed in a 10 mL eggplant flask and converted to a thin film by use of a rotary evaporator (BuCHI). 500 μL of a Pyranine solution (Pyranine: 35 mM, DPX: 50 mM, MES: 25 mM, pH 7.4) was added, followed by dispersion with use of an ultrasonic irradiator (USC-J) and passage through a polycarbonate film having a pore size of 100 nm by use of an extruder to obtain a uniform particle size. […] The concentration of the choline group of the phospholipid was determined by use of the phospholipid C test Wako and was adjusted by use of an MES buffer (MES: 25 mM, NaCl: 125 mM, pH 7.4) in such a way as to obtain 1.0 mmol/L of the phospholipid. […] The DOPE-Chems and DOPE-oleic acid were, respectively, measured in an acetic acid buffer (acetic acid: 25 mM, NaCl: 125 mM). […]
It will be noted that the leakage was calculated in such a way that in case where the EYPC liposome dispersion alone was used, it was taken as 0% and a value obtained in case where 30 μL of a 10-fold diluted Triton-X100 was added was taken as 100%.
More particularly, the leakage was calculated according to the following equation. […]

With CCCCCCCC(=O)OCC [Ethyl octanoate, Ethyl octenoate] the “Hydrophobic material only Leakage (%)” value (pH 5.0) was 11.1 ± 1.1% and the “Hydrophobic material only Leakage (%)” value (pH 7.4) was 9.0 ± 1.0%.

From patent US10765751B2, “pH sensitive carrier and preparation method thereof, and pH sensitive drug and pH sensitive drug composition each containing the carrier, and method for treating or preventing diseases using the same” (TERUMO KABUSHIKI KAISHA, priority 2012, dated 2020)
